Data from the supplement of paper PMC10849652.
Some of the results follow.

Protein sequences, listed by entry. Tags and fused reporters are not part of them. Lines headed by an entry give the natural chain unless they say otherwise; changes in a name come on top.
UniProt P07311: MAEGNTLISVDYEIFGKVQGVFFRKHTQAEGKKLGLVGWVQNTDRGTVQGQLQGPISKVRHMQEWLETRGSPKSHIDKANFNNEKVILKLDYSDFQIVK
UniProt P35573: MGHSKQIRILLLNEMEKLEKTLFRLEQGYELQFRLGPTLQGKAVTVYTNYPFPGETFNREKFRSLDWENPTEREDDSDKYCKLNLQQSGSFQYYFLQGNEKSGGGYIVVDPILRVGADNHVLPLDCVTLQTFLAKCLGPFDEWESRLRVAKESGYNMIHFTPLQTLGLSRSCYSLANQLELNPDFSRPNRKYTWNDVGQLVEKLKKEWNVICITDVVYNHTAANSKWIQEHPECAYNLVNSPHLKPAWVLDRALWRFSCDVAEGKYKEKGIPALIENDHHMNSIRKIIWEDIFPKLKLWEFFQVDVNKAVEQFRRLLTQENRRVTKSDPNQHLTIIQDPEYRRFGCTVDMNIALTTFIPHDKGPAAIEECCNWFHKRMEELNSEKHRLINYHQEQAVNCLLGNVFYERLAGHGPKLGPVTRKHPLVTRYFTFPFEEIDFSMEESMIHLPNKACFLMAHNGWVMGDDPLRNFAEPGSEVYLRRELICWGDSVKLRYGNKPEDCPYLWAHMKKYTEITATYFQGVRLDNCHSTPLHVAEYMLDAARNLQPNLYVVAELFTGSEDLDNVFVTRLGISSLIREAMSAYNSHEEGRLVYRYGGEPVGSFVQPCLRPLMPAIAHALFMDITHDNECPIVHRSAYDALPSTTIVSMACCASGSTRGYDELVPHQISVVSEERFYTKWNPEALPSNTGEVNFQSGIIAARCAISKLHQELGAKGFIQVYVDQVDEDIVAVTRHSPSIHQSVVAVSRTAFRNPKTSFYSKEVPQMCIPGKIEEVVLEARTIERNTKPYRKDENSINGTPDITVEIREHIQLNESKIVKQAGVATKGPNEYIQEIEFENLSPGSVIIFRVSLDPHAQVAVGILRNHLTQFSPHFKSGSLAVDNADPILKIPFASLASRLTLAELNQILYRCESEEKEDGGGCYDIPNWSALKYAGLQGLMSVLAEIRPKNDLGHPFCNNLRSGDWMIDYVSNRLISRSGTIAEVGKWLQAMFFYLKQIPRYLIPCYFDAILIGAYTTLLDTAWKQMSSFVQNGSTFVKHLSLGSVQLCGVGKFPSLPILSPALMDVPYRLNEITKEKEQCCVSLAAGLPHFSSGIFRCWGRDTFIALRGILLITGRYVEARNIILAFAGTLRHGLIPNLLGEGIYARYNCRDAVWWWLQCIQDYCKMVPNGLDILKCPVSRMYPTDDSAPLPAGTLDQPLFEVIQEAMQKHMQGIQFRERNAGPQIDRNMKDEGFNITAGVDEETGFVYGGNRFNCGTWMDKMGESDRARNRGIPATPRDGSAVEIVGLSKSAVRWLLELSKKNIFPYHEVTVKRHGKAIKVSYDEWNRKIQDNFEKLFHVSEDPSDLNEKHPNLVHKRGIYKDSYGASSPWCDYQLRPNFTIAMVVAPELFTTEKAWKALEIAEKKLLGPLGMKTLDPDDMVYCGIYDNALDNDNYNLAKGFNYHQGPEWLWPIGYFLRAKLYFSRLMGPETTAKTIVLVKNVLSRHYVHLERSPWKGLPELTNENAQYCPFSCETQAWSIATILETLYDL
UniProt Q9UHB7: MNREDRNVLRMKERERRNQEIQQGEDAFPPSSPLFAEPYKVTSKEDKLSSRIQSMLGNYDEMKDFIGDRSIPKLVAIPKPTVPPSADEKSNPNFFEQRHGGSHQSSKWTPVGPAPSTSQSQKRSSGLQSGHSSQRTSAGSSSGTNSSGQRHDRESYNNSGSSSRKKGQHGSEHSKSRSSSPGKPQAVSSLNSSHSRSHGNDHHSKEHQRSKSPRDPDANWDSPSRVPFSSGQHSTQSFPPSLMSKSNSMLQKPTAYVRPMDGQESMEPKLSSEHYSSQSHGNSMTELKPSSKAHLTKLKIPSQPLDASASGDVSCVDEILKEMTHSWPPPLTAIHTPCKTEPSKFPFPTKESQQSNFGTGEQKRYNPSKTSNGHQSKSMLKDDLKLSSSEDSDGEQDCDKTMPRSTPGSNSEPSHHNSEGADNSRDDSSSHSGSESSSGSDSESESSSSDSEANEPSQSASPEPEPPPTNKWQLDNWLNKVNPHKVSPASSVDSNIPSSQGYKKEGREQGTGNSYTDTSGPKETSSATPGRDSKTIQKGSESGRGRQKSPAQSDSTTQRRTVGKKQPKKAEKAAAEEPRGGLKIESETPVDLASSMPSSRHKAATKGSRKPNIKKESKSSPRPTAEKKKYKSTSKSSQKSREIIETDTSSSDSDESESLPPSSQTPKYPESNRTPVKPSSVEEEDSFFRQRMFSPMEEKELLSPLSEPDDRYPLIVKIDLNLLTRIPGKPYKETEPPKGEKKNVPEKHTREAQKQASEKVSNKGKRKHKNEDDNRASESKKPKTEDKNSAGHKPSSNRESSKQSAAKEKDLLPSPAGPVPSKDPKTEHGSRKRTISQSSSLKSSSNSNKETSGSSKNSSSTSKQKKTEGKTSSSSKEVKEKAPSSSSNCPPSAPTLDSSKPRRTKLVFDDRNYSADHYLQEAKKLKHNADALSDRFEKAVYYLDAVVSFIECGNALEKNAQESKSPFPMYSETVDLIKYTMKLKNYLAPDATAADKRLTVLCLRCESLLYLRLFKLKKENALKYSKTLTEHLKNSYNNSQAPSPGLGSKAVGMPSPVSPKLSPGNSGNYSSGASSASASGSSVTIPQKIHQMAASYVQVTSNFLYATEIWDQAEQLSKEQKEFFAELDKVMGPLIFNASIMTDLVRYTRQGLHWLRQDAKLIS
UniProt P61163, whole entry, looked up: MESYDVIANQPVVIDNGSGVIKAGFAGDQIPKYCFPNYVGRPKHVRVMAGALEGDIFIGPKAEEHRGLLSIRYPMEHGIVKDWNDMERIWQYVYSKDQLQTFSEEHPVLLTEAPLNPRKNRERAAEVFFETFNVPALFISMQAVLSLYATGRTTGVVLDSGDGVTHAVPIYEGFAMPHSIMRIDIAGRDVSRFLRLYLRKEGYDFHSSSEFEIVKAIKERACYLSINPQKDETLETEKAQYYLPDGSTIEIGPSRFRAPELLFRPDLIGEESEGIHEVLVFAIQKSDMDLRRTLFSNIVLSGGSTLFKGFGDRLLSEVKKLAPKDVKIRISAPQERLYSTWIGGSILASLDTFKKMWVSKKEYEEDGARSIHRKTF
UniProt Q9GZN1, whole entry, looked up: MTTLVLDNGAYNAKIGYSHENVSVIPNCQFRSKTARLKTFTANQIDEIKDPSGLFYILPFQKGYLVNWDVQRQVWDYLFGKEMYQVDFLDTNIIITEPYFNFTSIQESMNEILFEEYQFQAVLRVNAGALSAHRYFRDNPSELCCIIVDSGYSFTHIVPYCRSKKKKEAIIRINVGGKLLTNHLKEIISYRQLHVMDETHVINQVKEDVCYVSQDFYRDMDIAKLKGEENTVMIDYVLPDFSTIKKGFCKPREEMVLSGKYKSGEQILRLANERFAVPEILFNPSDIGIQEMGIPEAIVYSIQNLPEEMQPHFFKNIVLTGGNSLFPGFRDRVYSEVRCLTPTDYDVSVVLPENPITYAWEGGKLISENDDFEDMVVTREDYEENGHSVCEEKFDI
UniProt P00568: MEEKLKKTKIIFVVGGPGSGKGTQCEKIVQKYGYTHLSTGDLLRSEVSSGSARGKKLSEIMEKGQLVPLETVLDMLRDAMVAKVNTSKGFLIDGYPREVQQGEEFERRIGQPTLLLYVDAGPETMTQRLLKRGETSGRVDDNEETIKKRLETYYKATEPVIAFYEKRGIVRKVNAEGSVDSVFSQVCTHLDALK
UniProt P54922: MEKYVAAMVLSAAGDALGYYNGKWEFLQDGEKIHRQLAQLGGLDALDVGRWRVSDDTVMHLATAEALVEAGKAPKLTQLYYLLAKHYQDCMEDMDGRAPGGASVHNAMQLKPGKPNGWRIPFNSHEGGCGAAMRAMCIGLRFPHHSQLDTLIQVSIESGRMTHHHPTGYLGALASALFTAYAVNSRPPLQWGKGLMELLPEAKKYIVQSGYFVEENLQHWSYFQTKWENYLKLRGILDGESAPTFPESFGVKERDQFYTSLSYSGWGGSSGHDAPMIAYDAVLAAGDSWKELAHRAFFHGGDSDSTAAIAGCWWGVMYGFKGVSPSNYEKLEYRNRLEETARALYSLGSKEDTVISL
UniProt Q13443: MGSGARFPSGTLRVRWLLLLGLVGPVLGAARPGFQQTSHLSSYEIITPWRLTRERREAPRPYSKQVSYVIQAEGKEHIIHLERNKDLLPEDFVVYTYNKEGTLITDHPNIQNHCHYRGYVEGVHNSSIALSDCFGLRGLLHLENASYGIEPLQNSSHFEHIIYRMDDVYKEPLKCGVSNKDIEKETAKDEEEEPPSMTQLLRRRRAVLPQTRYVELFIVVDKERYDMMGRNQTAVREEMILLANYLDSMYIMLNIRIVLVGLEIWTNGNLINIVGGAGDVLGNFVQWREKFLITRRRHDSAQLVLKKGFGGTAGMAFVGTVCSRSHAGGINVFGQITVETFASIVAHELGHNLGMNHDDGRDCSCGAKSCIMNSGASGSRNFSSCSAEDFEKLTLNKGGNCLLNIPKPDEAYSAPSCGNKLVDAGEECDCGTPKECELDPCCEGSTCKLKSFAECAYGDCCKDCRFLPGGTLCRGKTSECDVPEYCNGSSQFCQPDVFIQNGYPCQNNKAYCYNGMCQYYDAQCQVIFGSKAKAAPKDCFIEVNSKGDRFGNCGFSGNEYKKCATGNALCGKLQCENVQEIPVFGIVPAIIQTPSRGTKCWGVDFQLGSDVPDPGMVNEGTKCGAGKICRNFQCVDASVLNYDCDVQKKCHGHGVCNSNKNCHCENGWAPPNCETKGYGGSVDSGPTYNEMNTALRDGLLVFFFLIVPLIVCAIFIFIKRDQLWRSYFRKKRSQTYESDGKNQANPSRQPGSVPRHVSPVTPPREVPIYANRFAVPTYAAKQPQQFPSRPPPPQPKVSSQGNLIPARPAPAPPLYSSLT
UniProt Q53FZ2: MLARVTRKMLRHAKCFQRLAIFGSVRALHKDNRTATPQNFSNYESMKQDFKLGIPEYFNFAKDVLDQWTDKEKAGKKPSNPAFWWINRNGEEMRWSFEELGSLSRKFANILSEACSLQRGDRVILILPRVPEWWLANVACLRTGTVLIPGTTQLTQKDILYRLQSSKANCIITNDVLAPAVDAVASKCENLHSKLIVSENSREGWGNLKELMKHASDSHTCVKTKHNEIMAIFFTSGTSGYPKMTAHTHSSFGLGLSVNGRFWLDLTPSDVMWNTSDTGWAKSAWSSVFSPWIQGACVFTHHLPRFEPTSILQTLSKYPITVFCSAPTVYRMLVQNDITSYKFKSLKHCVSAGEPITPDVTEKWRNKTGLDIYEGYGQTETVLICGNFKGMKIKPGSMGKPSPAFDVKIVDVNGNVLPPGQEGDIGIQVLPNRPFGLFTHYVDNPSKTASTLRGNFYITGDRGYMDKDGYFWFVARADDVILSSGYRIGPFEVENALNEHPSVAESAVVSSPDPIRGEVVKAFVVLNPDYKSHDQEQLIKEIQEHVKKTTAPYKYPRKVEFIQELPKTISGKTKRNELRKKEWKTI
UniProt O43823: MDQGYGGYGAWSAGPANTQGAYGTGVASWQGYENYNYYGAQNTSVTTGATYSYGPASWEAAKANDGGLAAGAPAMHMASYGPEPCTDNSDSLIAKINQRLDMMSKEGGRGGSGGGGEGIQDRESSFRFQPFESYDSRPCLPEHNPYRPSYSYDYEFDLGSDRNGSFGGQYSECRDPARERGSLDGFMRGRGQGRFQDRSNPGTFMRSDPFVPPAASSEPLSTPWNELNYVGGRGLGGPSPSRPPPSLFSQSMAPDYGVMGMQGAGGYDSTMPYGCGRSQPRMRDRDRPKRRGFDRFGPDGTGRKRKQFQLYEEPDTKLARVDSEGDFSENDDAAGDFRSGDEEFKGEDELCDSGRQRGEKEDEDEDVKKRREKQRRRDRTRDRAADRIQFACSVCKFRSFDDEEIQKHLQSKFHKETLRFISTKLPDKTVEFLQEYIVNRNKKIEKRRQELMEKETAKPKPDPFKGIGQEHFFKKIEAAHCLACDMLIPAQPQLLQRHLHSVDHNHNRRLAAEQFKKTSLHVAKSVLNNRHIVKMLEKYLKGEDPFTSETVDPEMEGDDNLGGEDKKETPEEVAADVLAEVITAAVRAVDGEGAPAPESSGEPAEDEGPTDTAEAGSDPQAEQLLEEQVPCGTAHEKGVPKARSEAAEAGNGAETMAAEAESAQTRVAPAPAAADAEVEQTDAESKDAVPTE
UniProt P55263: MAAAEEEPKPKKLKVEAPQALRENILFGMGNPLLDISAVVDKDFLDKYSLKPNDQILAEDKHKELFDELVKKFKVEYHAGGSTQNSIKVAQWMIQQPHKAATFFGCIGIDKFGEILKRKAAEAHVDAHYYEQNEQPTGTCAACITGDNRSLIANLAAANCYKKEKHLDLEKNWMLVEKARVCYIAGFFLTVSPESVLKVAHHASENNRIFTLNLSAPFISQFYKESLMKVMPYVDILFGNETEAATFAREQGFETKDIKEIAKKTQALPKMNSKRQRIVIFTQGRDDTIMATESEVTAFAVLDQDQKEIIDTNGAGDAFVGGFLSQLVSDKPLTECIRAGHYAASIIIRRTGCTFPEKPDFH

Columns and labels:
Assay in all cases: log2 fold change, soluble protein after heating vs DMSO (PISA); higher = thermal stabilisation; K562 lysate, 10 uM; active = over 0.2 and 3.5 SD of the protein, either way, in both replicates (recomputed)
lapatinib = compound: CS(=O)(=O)CCNCc1ccc(-c2ccc3ncnc(Nc4ccc(OCc5cccc(F)c5)c(Cl)c4)c3c2)o1 [lapatinib]
In short: (§1)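 K562 pellets were dounce-homogenised in PBS pH 7.4 containing 1 mM MgCl2, and the crude extract, at 1 mg/mL protein, was exposed to 10 μM compound for 30 min. Aliquots were heated for 3 min across 48°C-58°C, pooled, brought to 0.5% NP-40 at 4°C and spun at 21,000xg for 90 min, with the supernatant taken as soluble protein. TMTpro 16plex LC-MS/MS with equalised channel sums quantified that protein. Values are log-two fold changes in thermal stability relative to solvent controls, taken from duplicates.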

pictilisib = compound: CS(=O)(=O)N1CCN(Cc2cc3nc(-c4cccc5[nH]ncc45)nc(N4CCOCC4)c3s2)CC1 [pictilisib]
In short: as §1

crizotinib = compound: C[C@@H](Oc1cc(-c2cnn(C3CCNCC3)c2)cnc1N)c1c(Cl)ccc(F)c1Cl [crizotinib]
In short: as §1

[1] = compound: C[C@H](C1=CC=C(C=C1)C(=O)NC2=C3C=CNC3=NC=C2)N
In short: as §1

duvelisib = compound: C[C@H](Nc1ncnc2nc[nH]c12)c1cc2cccc(Cl)c2c(=O)n1-c1ccccc1 [duvelisib]
In short: as §1

gandotinib = compound: Cc1cc(Nc2cc(CN3CCOCC3)c3nc(C)c(Cc4ccc(Cl)cc4F)n3n2)n[nH]1 [gandotinib]
In short: as §1

tozasertib = compound: Cc1cc(Nc2cc(N3CCN(C)CC3)nc(Sc3ccc(NC(=O)C4CC4)cc3)n2)n[nH]1 [tozasertib]
In short: as §1

doramapimod = compound: Cc1ccc(-n2nc(C(C)(C)C)cc2NC(=O)Nc2ccc(OCCN3CCOCC3)c3ccccc23)cc1 [doramapimod]
In short: as §1

bafetinib = compound: Cc1ccc(NC(=O)c2ccc(CN3CC[C@H](N(C)C)C3)c(C(F)(F)F)c2)cc1Nc1nccc(-c2cncnc2)n1 [bafetinib]
In short: as §1

[2] = compound: Cc1cccc(CC(=O)N2CCc3c2ccc(-c2cn(C)c4ncnc(N)c24)c3F)n1
In short: as §1

nilotinib = compound: Cc1cn(-c2cc(NC(=O)c3ccc(C)c(Nc4nccc(-c5cccnc5)n4)c3)cc(C(F)(F)F)c2)cn1 [nilotinib]
In short: as §1

[3] = compound: Cc1nc(Nc2n[nH]c3c2CN(C(=O)N[C@H](CN(C)C)c2ccccc2)C3(C)C)c2sccc2n1
In short: as §1

dasatinib = compound: Cc1nc(Nc2ncc(C(=O)Nc3c(C)cccc3Cl)s2)cc(N2CCN(CCO)CC2)n1 [dasatinib]
In short: as §1

[4] = compound: Cc1ncc(-c2ccnc(Nc3ccc(S(C)(=O)=O)cc3)n2)n1C(C)C
In short: as §1

[5] = compound: Cn1cc(-c2ccc3c(c2)CCN3C(=O)Cc2cccc(C(F)(F)F)c2)c2c(N)ncnc21
In short: as §1

quisinostat = compound: Cn1cc(CNCC2CCN(c3ncc(C(=O)NO)cn3)CC2)c2ccccc21 [quisinostat]
In short: as §1

tipifarnib = compound: Cn1cncc1[C@@](N)(c1ccc(Cl)cc1)c1ccc2c(c1)c(-c1cccc(Cl)c1)cc(=O)n2C [tipifarnib]
In short: as §1

[6] = compound: NC(=O)Nc1cc(-c2cccc(F)c2)sc1C(=O)N[C@H]1CCCNC1
In short: as §1

[7] = compound: NC(=O)c1cnc(N[C@@H]2CCCC[C@@H]2N)nc1Nc1cccc(-n2nccn2)c1
In short: as §1

[8] = compound: NC1(c2ccc(-c3nc4ccn5c(=O)[nH]nc5c4cc3-c3ccccc3)cc2)CCC1
In short: as §1

Measured: log2 fold change

ACYP1 (UniProt P07311)
active: [1] 0.236
inactive: lapatinib -0.001 | pictilisib -0.044 | crizotinib 0.024 | duvelisib 0.005 | gandotinib -0.051 | tozasertib 0.016 | doramapimod 0.009 | bafetinib 0.005 | [2] -0.091 | nilotinib -0.014 | [3] 0.019 | dasatinib 0.022 | [4] -0.028 | [5] 0.014 | quisinostat 0.024 | tipifarnib 0.019 | [6] -0.029 | [7] -0.013 | [8] 0.039

AGTPBP1 (UniProt Q9UPW5)
inactive: lapatinib 0.008 | pictilisib -0.103 | crizotinib -0.121 | [1] 0.018 | duvelisib 0.009 | gandotinib -0.271 | tozasertib 0.028 | doramapimod 0.007 | bafetinib 0.001 | [2] 0.113 | nilotinib 0.077 | [3] -0.205 | dasatinib 0.038 | [4] 0.1 | [5] -0.032 | quisinostat -0.197 | tipifarnib 0.207 | [6] 0.038 | [7] 0.045 | [8] 0.115

ADAR isoform 4 (UniProt P55265)
inactive: lapatinib 0.023 | pictilisib -0.135 | crizotinib 0 | [1] 0.01 | duvelisib 0.016 | gandotinib -0.038 | tozasertib 0.016 | doramapimod 0.069 | bafetinib -0.16 | [2] 0.028 | nilotinib 0.006 | [3] 0.012 | dasatinib -0.026 | [4] -0.027 | [5] 0.009 | quisinostat -0.114 | tipifarnib -0.009 | [6] 0.015 | [7] -0.009 | [8] 0.029

AGL (UniProt P35573)
inactive: lapatinib -0.004 | pictilisib 0 | crizotinib -0.019 | [1] 0.115 | duvelisib -0.013 | gandotinib -0.094 | tozasertib 0.014 | doramapimod 0.029 | bafetinib -0.037 | [2] -0.059 | nilotinib -0.024 | [3] -0.007 | dasatinib -0.027 | [4] -0.005 | [5] 0.028 | quisinostat -0.016 | tipifarnib 0.016 | [6] 0.038 | [7] 0.016 | [8] -0.007

ACTN4 (UniProt O43707)
inactive: lapatinib -0.018 | pictilisib -0.002 | crizotinib 0.018 | [1] 0.009 | duvelisib 0.005 | gandotinib 0.02 | tozasertib -0.018 | doramapimod -0.017 | bafetinib 0.019 | [2] -0.028 | nilotinib 0.002 | [3] -0.008 | dasatinib 0.029 | [4] 0.011 | [5] -0.018 | quisinostat -0.018 | tipifarnib 0.004 | [6] -0.02 | [7] -0.039 | [8] 0.01

AFF4 (UniProt Q9UHB7)
inactive: lapatinib 0.003 | pictilisib -0.007 | crizotinib -0.033 | [1] 0.011 | duvelisib 0.059 | gandotinib 0.066 | tozasertib 0 | doramapimod 0 | bafetinib 0.05 | [2] 0.001 | nilotinib -0.039 | [3] -0.068 | dasatinib 0.005 | [4] 0.012 | [5] 0.023 | quisinostat 0.02 | tipifarnib 0.065 | [6] 0.032 | [7] -0.026 | [8] 0.022

ACTR1A (UniProt P61163)
inactive: lapatinib -0.001 | pictilisib -0.024 | crizotinib -0.01 | [1] -0.036 | duvelisib 0.014 | gandotinib 0.042 | tozasertib -0.027 | doramapimod -0.018 | bafetinib 0.008 | [2] 0.025 | nilotinib 0 | [3] 0.008 | dasatinib 0.003 | [4] 0.001 | [5] -0.01 | quisinostat 0.056 | tipifarnib -0.014 | [6] -0.004 | [7] -0.016 | [8] -0.049

ACTR6 (UniProt Q9GZN1)
inactive: lapatinib -0.025 | pictilisib 0.059 | crizotinib -0.03 | [1] -0.127 | duvelisib 0.042 | gandotinib 0.039 | tozasertib 0.001 | doramapimod 0.128 | bafetinib 0.011 | [2] 0.09 | nilotinib 0.056 | [3] -0.024 | dasatinib 0.049 | [4] -0.335 | [5] 0.077 | quisinostat -0.122 | tipifarnib 0.007 | [6] 0.049 | [7] 0.03 | [8] -0.08

AIDA (UniProt Q96BJ3)
inactive: lapatinib -0.013 | pictilisib -0.026 | crizotinib -0.002 | [1] 0.028 | duvelisib 0.084 | gandotinib -0.044 | tozasertib 0.023 | doramapimod -0.005 | bafetinib -0.024 | [2] -0.006 | nilotinib 0.042 | [3] -0.081 | dasatinib -0.088 | [4] -0.017 | [5] -0.066 | quisinostat -0.005 | tipifarnib -0.083 | [6] 0.001 | [7] 0.002 | [8] -0.017

AK1 (UniProt P00568)
inactive: lapatinib -0.027 | pictilisib -0.011 | crizotinib 0.091 | duvelisib -0.001 | gandotinib -0.118 | tozasertib 0.023 | doramapimod -0.037 | bafetinib 0.06 | [2] -0.189 | nilotinib 0.023 | [3] 0.008 | dasatinib -0.038 | [4] 0.015 | [5] 0.011 | quisinostat 0.118 | tipifarnib 0.056 | [6] 0.004 | [7] 0.003 | [8] 0.009
active: [1] 0.285

2 entries drawn at random from those above:
AIDA (UniProt Q96BJ3)
inactive: lapatinib -0.013 | pictilisib -0.026 | crizotinib -0.002 | [1] 0.028 | duvelisib 0.084 | gandotinib -0.044 | tozasertib 0.023 | doramapimod -0.005 | bafetinib -0.024 | [2] -0.006 | nilotinib 0.042 | [3] -0.081 | dasatinib -0.088 | [4] -0.017 | [5] -0.066 | quisinostat -0.005 | tipifarnib -0.083 | [6] 0.001 | [7] 0.002 | [8] -0.017

ACYP1 (UniProt P07311)
active: [1] 0.236
inactive: lapatinib -0.001 | pictilisib -0.044 | crizotinib 0.024 | duvelisib 0.005 | gandotinib -0.051 | tozasertib 0.016 | doramapimod 0.009 | bafetinib 0.005 | [2] -0.091 | nilotinib -0.014 | [3] 0.019 | dasatinib 0.022 | [4] -0.028 | [5] 0.014 | quisinostat 0.024 | tipifarnib 0.019 | [6] -0.029 | [7] -0.013 | [8] 0.039

Carrying on.

ADPRH (UniProt P54922)
inactive: lapatinib -0.015 | pictilisib -0.01 | crizotinib -0.053 | [1] 0.078 | duvelisib -0.026 | gandotinib -0.052 | tozasertib 0.041 | doramapimod 0.024 | bafetinib -0.029 | [2] 0.031 | nilotinib -0.168 | [3] 0.037 | dasatinib -0.015 | [4] -0.023 | [5] 0.002 | quisinostat -0.07 | tipifarnib 0 | [6] 0.013 | [7] -0.021 | [8] 0.04

ADAM9 (UniProt Q13443)
inactive: lapatinib -0.018 | pictilisib 0.002 | crizotinib 0.03 | [1] -0.044 | duvelisib -0.018 | gandotinib -0.002 | tozasertib -0.048 | doramapimod 0.057 | bafetinib 0.035 | [2] 0.038 | nilotinib 0.006 | [3] -0.017 | dasatinib 0.012 | [4] -0.011 | [5] -0.011 | quisinostat 0.001 | tipifarnib 0.046 | [6] -0.016 | [7] 0.042 | [8] 0.019

ACSM3 (UniProt Q53FZ2)
inactive: lapatinib 0.008 | pictilisib -0.018 | crizotinib -0.014 | [1] 0.011 | duvelisib 0.025 | gandotinib -0.051 | tozasertib 0.002 | doramapimod 0 | bafetinib -0.034 | [2] 0.047 | nilotinib 0.011 | [3] 0.017 | dasatinib -0.02 | [4] -0.026 | [5] 0.017 | quisinostat 0.018 | tipifarnib 0.039 | [6] -0.011 | [7] 0.009 | [8] -0.012

AKAP8L (UniProt Q9ULX6)
active: nilotinib -0.267
inactive: lapatinib 0.017 | pictilisib -0.018 | crizotinib 0.053 | [1] -0.05 | duvelisib 0.038 | gandotinib 0.033 | tozasertib 0 | doramapimod -0.153 | bafetinib 0.016 | [2] 0.011 | [3] 0.022 | dasatinib -0.062 | [4] 0.016 | [5] 0.037 | quisinostat -0.024 | tipifarnib -0.011 | [6] 0.055 | [7] 0.002 | [8] 0.028

AKAP8 (UniProt O43823)
inactive: lapatinib 0.008 | pictilisib -0.126 | crizotinib 0.023 | [1] 0.035 | duvelisib 0.022 | gandotinib 0.003 | tozasertib 0.017 | doramapimod -0.071 | bafetinib -0.119 | [2] 0.039 | [3] 0.039 | dasatinib 0.01 | [4] -0.001 | [5] 0.006 | quisinostat -0.075 | tipifarnib 0.025 | [6] 0.084 | [7] 0.022 | [8] 0.059
active: nilotinib -0.3

ADK (UniProt P55263)
active: gandotinib 0.532
inactive: lapatinib 0.154 | pictilisib 0.169 | crizotinib 0.235 | [1] -0.007 | duvelisib 0.059 | tozasertib -0.005 | doramapimod 0.014 | bafetinib 0.292 | [2] -0.064 | nilotinib -0.028 | [3] 0.075 | dasatinib 0.463 | [4] 0.046 | [5] -0.005 | quisinostat -0.062 | tipifarnib 0.324 | [6] -0.023 | [7] -0.015 | [8] 0.016
